Source: patent US20090069241A1, “Compositions and Methods for Use of Pigment Epithelial Derived Factor (PEDF) Peptide Fragments” (Yale University, priority 2006, published 2009)
No constants are given. Whether binding was seen depends on the method and setting. Some entries that bind do so weakly or less than the wild type. Sequences can lack the tags named with a protein.

The chains behind the UniProt entries cited, without tags or fusion partners. Residues count along the entry.
UniProt P35968, residues 20-764: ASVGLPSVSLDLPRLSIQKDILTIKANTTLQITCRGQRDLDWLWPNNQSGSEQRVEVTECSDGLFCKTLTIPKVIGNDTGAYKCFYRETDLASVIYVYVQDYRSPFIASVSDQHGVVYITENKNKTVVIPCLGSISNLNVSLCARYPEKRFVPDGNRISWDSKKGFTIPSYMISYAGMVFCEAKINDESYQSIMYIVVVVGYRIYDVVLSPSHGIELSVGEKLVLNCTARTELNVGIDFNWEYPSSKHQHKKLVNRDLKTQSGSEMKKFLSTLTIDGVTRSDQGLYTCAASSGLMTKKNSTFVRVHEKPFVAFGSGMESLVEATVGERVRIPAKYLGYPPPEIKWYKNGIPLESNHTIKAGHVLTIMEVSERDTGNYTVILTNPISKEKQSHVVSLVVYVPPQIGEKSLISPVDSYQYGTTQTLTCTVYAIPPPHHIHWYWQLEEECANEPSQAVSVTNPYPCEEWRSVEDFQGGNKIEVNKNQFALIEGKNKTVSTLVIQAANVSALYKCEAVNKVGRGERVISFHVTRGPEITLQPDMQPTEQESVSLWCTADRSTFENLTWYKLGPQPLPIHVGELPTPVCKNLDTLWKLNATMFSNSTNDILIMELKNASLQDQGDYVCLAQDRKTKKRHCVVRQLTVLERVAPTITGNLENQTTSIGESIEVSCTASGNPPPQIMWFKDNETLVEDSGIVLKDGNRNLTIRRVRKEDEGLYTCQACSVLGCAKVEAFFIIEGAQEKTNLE

Biological target: VEGF receptor KDR (VEGFR2) (UniProt P35968)
Assay: ELISA

binding: binds
B1: codon-optimized fusion protein (coPEDF): thioredoxin fused via His6 tag, thrombin cleavage site and S-Tag to the N-terminal of human PEDF (protein, not shown: large carriers; small tags and cut ends)
chain: QNPASPPEEGSPDPDSTGALVEEEDPFFKVPVNKLAAAVSNFGYDLYRVRSSMSPTTNVLLSPLSVATALSALSLGADERTESIIHRALYYDLISSPDIHGTYKELLDTVTAPQKNLKSASRIVFEKKLRIKSSFVAPLEKSYGTRPRVLTGNPRLDLQEINNWVQAQMKGKLARSTKEIPDEISILLLGVAHFKGQWVTKFDSRKTSLEDFYLDEERTVRVPMMSDPKAVLRYGLDSDLSCKIAQLPLTGSMSIIFFLPLKVTQNLTLIEESLTSEFIHDIDRELKTVQAVLTVPKLKLSYEGEVTKSLQEMKLQSLFDSPDFSKITGKPIKLTQVEHRAGFEWNEDGAGTTPSPGLQPAHLTFPLDYHLNQPFIFVLRDTDTGALLFIGKILDPRGP
